Assay results reported in PMC10047868.
Results are given in words; binding and its absence hold for the method and conditions named. Binding seen in cells or lysates may run through a third protein. A yes stands for co-enrichment or nearness to the bait. Other partners may have been found.

The chains behind the UniProt entries cited, without tags or fusion partners. Residues count along the entry.
UniProt P35381, residues 48-552: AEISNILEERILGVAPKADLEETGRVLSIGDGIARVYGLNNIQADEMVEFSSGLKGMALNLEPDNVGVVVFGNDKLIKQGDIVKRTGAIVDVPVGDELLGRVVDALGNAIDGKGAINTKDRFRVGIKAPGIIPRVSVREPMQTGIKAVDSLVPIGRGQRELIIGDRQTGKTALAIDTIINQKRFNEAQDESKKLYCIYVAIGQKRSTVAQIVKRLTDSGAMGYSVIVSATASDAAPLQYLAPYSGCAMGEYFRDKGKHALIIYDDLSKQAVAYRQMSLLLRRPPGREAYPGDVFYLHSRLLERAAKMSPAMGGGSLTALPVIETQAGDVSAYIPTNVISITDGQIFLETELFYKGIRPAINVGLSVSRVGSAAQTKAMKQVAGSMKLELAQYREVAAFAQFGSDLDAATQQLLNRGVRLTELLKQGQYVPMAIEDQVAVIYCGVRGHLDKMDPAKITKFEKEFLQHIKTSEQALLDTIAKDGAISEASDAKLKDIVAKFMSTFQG
UniProt Q05825, residues 32-505: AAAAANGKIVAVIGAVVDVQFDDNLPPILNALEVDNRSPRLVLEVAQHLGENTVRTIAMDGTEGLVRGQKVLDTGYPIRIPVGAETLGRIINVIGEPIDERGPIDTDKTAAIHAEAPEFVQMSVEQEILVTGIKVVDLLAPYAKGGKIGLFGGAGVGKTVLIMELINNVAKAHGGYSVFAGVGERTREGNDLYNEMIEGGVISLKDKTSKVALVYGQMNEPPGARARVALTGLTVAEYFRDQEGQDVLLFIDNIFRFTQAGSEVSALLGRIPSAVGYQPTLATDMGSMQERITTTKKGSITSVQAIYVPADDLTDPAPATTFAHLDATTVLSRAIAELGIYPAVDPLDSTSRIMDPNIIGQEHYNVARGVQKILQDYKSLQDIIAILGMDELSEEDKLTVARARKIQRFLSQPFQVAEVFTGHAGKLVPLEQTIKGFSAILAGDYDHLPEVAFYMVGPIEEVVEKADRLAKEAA
UniProt Q26365: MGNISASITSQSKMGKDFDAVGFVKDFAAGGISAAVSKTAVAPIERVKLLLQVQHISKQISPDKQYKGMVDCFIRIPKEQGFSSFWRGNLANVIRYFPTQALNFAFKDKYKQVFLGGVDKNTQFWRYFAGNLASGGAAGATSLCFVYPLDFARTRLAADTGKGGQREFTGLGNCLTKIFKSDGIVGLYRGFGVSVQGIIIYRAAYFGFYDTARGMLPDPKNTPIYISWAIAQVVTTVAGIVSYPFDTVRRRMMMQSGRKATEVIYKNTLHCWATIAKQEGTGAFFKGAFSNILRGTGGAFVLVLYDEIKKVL

T1: D. melanogaster globin 1 (Glob1) (D. melanogaster (endogenous in isolated mitochondria)) (UniProt Q9VF15)
T1 sequence: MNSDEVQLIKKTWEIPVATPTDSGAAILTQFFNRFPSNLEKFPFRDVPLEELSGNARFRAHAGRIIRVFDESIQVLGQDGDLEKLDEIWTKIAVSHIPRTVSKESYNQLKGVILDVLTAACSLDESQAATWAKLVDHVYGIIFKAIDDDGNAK

B1: ATP synthase subunit d, D. melanogaster (protein, UniProt Q24251 1-178)
chain: MAARRIAQSSINWSALAERVPANQKSSFGAFKTKSDIYVRAVLANPECPPQIDWANYKKLVPVAGLVDSFQKQYEALKVPYPQDKVSSQVDAEIKASQSEIDAYKKASEQRIQNYQKEIAHLKSLLPYDQMTMEDYRDAFPDSALDPLNKPTFWPHTPEEQVGYKSKEQLEAEAQGHH
B2: putative ATP synthase subunit f, D. melanogaster (protein, UniProt Q9W141 1-107)
chain: MAFGDYPAEYNPKVHGPYDPARFYGKADVPFGQVKLGEIGAWLGRRNKTPNAVAGAVSRAWWRWQHKYVFPKRAGIAPFFQLTVASMTFFYLINYTKLKHHRNYKYH

These molecules were tested against T1, D. melanogaster globin 1 (Glob1) (D. melanogaster (endogenous in isolated mitochondria)) (assay: affinity purification with mass spectrometry; co-immunoprecipitation with anti-HbB antibody (ab227552) on Dynabeads Protein G, D. melanogaster mitochondrial fraction, overnight 18 h at 4 °C; MALDI-TOF/MS of the eluate).

binding, binds:
ATP synthase subunit alpha, D. melanogaster (from UniProt P35381 48-552)
ATP synthase subunit gamma, D. melanogaster
ATP synthase subunit beta, D. melanogaster (from UniProt Q05825 32-505)
ATP synthase subunit b, D. melanogaster
ADP/ATP carrier protein, D. melanogaster (from UniProt Q26365 1-312)
B1
B2
